Assay results: publication PMC11514929
No constants are given. Whether binding was seen depends on the method and setting. In cells and extracts the contact can be indirect. Binding can be weak; no strength is given. Sequences can lack the tags named with a protein.

Biological target: FLAG-Akt
Experiment: co-IP; FLAG-tagged bait immunoprecipitated with anti-FLAG M2 agarose beads overnight at 4 °C from RIPA lysates of transfected HEK-293 cells; blots for GFP or HA; cells treated with dopamine (10 μM), quinpirole (100 nM) or isoproterenol (10 μM) for 5 min and washed/rechallenged, or with 10 ng/mL EGF (5 or 20 min, or washed/rechallenged)

binding: binds
B1: HA-USP33 (enzyme, UniProt Q8TEY7 1-942)
chain: MTGSNSHITILTLKVLPHFESLGKQEKIPNKMSAFRNHCPHLDSVGEITKEDLIQKSLGTCQDCKVQGPNLWACLENRCSYVGCGESQVDHSTIHSQETKHYLTVNLTTLRVWCYACSKEVFLDRKLGTQPSLPHVRQPHQIQENSVQDFKIPSNTTLKTPLVAVFDDLDIEADEEDELRARGLTGLKNIGNTCYMNAALQALSNCPPLTQFFLDCGGLARTDKKPAICKSYLKLMTELWHKSRPGSVVPTTLFQGIKTVNPTFRGYSQQDAQEFLRCLMDLLHEELKEQVMEVEEDPQTITTEETMEEDKSQSDVDFQSCESCSNSDRAENENGSRCFSEDNNETTMLIQDDENNSEMSKDWQKEKMCNKINKVNSEGEFDKDRDSISETVDLNNQETVKVQIHSRASEYITDVHSNDLSTPQILPSNEGVNPRLSASPPKSGNLWPGLAPPHKKAQSASPKRKKQHKKYRSVISDIFDGTIISSVQCLTCDRVSVTLETFQDLSLPIPGKEDLAKLHSSSHPTSIVKAGSCGEAYAPQGWIAFFMEYVKRFVVSCVPSWFWGPVVTLQDCLAAFFARDELKGDNMYSCEKCKKLRNGVKFCKVQNFPEILCIHLKRFRHELMFSTKISTHVSFPLEGLDLQPFLAKDSPAQIVTYDLLSVICHHGTASSGHYIAYCRNNLNNLWYEFDDQSVTEVSESTVQNAEAYVLFYRKSSEEAQKERRRISNLLNIMEPSLLQFYISRQWLNKFKTFAEPGPISNNDFLCIHGGVPPRKAGYIEDLVLMLPQNIWDNLYSRYGGGPAVNHLYICHTCQIEAEKIEKRRKTELEIFIRLNRAFQKEDSPATFYCISMQWFREWESFVKGKDGDPPGPIDNTKIAVTKCGNVMLRQGADSGQISEETWNFLQSIYGGGPEVILRPPVVHVDPDILQAEEKIEVETRSL
